Measured values reported in patent US20110230406A1.
These are yes or no findings as the source states them, for the method shown. Some entries that bind do so weakly or less than the wild type.

Assays:
Streptavidin = test: phage ELISA titration, streptavidin-coated wells without BMP-2, HRP anti-M13 antibody, luminescence
[1] = molecular target: T1, biotinylated BMP-2 (R&D Systems, Item number 355-BM/CF) (human) (UniProt P12643); test: serine-scan mutant phage ELISA
T1 sequence (biotinylated (sites not given), looked up): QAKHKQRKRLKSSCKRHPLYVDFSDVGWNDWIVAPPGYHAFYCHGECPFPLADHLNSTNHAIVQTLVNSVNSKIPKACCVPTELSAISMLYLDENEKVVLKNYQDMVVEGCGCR

B1: phage displaying the peptide of SEQ ID NO: 4 on the pIX minor coat protein (peptide, not shown: large carriers)
peptide: AGFRWWHTQPAHTLSYT
B1 was tested, and the binding (Streptavidin) was “binds”.

B2: SEQ ID NO: 33, a fragment of SEQ ID NO: 3 (peptide)
peptide: AGYTSFALLKS
In the case of B2, the binding [1] is reported as “binds”.

B3: SEQ ID NO: 34, a fragment of SEQ ID NO: 6 (peptide)
peptide: AGRDSFNLLTS
In the case of B3, the binding [1] is reported as “binds”.
